{"source": "PubChem BioAssay AID328", "about": "(DTP/NCI, 2004)", "tested_on": "BDF1 mice, P388 leukemia ip, median survival T/C", "assay": "NCI In Vivo Anticancer Drug Screen. Data for tumor model P388 Leukemia (intraperitoneal) in B6D2F1 (BDF1) mice", "details": "T/C endpoint: median survival time, higher T/C = longer survival", "outline": "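In tumour-bearing mice, survival after compound treatment is set against the vehicle group and given as a quotient.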", "key": {"[1]": {"details": "dose: 100.0 mg/kg/injection, schedule: Q01DX009 (ip), vehicle: Klucel (hydroxypropylcellulose) (HPC)"}, "[2]": {"details": "dose: 200.0 mg/kg/injection, schedule: Q01DX009 (ip), vehicle: Klucel (hydroxypropylcellulose) (HPC)"}}, "note": "The list does not hold the whole screen: it is rich in T/C values a quarter to a half above the control, in often repeated tests (any T/C) and in doses without a T/C. Other doses and runs of a compound stand elsewhere. T/C is the treated group as % of the vehicle group. Some doses have a count of surviving animals in place of a T/C: the source files T/C as zero there, which appears to mark a toxic dose or a test without result, not a measured value. Some doses without a T/C left all or most animals alive at the check, yet need not have been tolerated: the source hardly ever lists a survival T/C far under the control, and the zero likely stands for such cases as well. Counts of survivors are from the toxicity check (mostly the fifth day) where no day follows; animals may have died later. Schedules are NCI's codes, taken here to give the interval after Q, in days (D) or hours (H), and the number of doses after X. For survival time, this PubChem deposit counts one and a half times the control or more as active, and values a quarter to a half above the control carry no call in these data; other NCI protocols may use other cut-offs. Some entries were tested several times; the results are listed from low to high. Some T/C values are followed by the survivors on the day toxicity was checked, most often the fifth; where none is given, no animal had died by that day."}
{"smiles": "COC1CCC(C)(C=O)C(C#N)(C#N)C1(C#N)C#N", "note": "(centres undefined)", "values": [{"measurement": "survivor count", "setting": "dose: 100.0 mg/kg/injection, schedule: Q01DX001 (ip), vehicle: saline with Tween-80", "value": "0 of 6"}, {"measurement": "survivor count", "setting": "dose: 200.0 mg/kg/injection, schedule: Q01DX001 (ip), vehicle: saline with Tween-80", "value": "0 of 6"}]}
{"smiles": "COc1cccc(N)c1N", "values": [{"measurement": "T/C", "setting": "dose: 100.0 mg/kg/injection, schedule: Q01DX009 (ip), vehicle: suspension in saline", "value": "127 % of control"}, {"measurement": "survivor count", "setting": "dose: 400.0 mg/kg/injection, schedule: Q01DX009 (ip), vehicle: suspension in saline", "value": "5 of 6"}]}
{"smiles": "CCCCCCCCCCCCCC(=O)CC", "values": [{"measurement": "survivor count", "setting": "dose: 300.0 mg/kg/injection, schedule: Q04DX003 (ip), vehicle: saline with Tween-80", "value": "6 of 6"}]}
{"smiles": "CCCCNC1(C#N)CCN(Cc2ccccc2)CC1", "values": [{"measurement": "survivor count", "setting": "dose: 50.0 mg/kg/injection, schedule: Q01DX009 (ip), vehicle: Klucel (hydroxypropylcellulose) (HPC)", "value": "5 of 6"}, {"measurement": "survivor count", "setting": "dose: 50.0 mg/kg/injection, schedule: Q04DX003 (ip), vehicle: Klucel (hydroxypropylcellulose) (HPC)", "value": "6 of 6"}, {"measurement": "survivor count", "setting": "dose: 100.0 mg/kg/injection, schedule: Q04DX003 (ip), vehicle: Klucel (hydroxypropylcellulose) (HPC)", "value": "0 of 6"}]}
{"smiles": "C=C(C)C1CCC2=CC(CC3(C)OC3C3=CC(C(=O)OC)=C(C1)O3)OC2=O", "note": "(centres undefined)", "values": [{"measurement": "survivor count", "setting": "[1]", "value": "6 of 6"}, {"measurement": "survivor count", "setting": "[2]", "value": "6 of 6"}]}
{"smiles": "CCOc1ccc2nc(N)sc2c1", "values": [{"measurement": "survivor count", "setting": "[2]", "value": "2 of 6"}, {"measurement": "survivor count", "setting": "dose: 400.0 mg/kg/injection, schedule: Q01DX001 (ip), vehicle: Klucel (hydroxypropylcellulose) (HPC)", "value": "1 of 6"}, {"measurement": "survivor count", "setting": "dose: 400.0 mg/kg/injection, schedule: Q01DX009 (ip), vehicle: Klucel (hydroxypropylcellulose) (HPC)", "value": "0 of 6"}]}
{"smiles": "CSC1SCC2C(=O)N(C)C(C(C)C)C(=O)OCC(NC(=O)c3cnc4ccccc4n3)C(=O)NC(C)C(=O)N(C)C1C(=O)N(C)C(C(C)C)C(=O)OCC(NC(=O)c1cnc3ccccc3n1)C(=O)NC(C)C(=O)N2C", "note": "(centres undefined)", "values": [{"measurement": "T/C", "setting": "dose: 2.5 micrograms/kg/injection, schedule: Q01DX010 (ip), vehicle: saline", "value": "145 % of control"}, {"measurement": "T/C", "setting": "dose: 7.5 micrograms/kg/injection, schedule: Q01DX009 (ip), vehicle: saline with Tween-80", "value": "125 % of control"}, {"measurement": "T/C", "setting": "dose: 10.0 micrograms/kg/injection, schedule: Q01DX010 (ip), vehicle: saline", "value": "127 % of control [4 of 6 alive]"}, {"measurement": "T/C", "setting": "dose: 15.0 micrograms/kg/injection, schedule: Q01DX009 (ip), vehicle: saline with Tween-80", "value": "132 % of control"}, {"measurement": "survivor count", "setting": "dose: 40.0 micrograms/kg/injection, schedule: Q01DX010 (ip), vehicle: saline", "value": "1 of 6"}, {"measurement": "survivor count", "setting": "dose: 80.0 micrograms/kg/injection, schedule: Q01DX010 (ip), vehicle: saline", "value": "1 of 6"}, {"measurement": "survivor count", "setting": "dose: 160.0 micrograms/kg/injection, schedule: Q01DX010 (ip), vehicle: saline", "value": "0 of 6"}, {"measurement": "survivor count", "setting": "dose: 320.0 micrograms/kg/injection, schedule: Q01DX010 (ip), vehicle: saline", "value": "0 of 6"}]}
{"smiles": "Nc1ccccc1SC1CC(=O)N(c2ccc(Br)c(Cl)c2)C1=O", "note": "(centres undefined)", "values": [{"measurement": "survivor count", "setting": "dose: 0.75 mg/kg/injection, schedule: Q01DX005 (ip), vehicle: saline with Tween-80", "value": "5 of 5"}]}
{"smiles": "Cc1cc2c(C(C)C)c(O)c(O)c(C=O)c2c(O)c1-c1c(C)cc2c(C(C)C)c(O)c(O)c(C=O)c2c1O", "values": [{"measurement": "T/C", "setting": "dose: 5.0 mg/kg/injection, schedule: Q01DX009 (ip), vehicle: saline with Tween-80", "value": "129 and 144 % of control"}, {"measurement": "survivor count", "setting": "dose: 20.0 mg/kg/injection, schedule: Q01DX009 (ip), vehicle: saline with Tween-80", "value": "6 of 6"}]}
{"smiles": "COc1cc(/C=N/NC(=O)c2ccncc2)cc(OC)c1OC", "values": [{"measurement": "T/C", "setting": "[1]", "value": "127 % of control"}]}
{"smiles": "CCSSC(=Nc1ccccc1)OCC(C)C", "values": [{"measurement": "T/C", "setting": "dose: 100.0 mg/kg/injection, schedule: Q01DX009 (ip), vehicle: other", "value": "128 % of control"}, {"measurement": "T/C", "setting": "dose: 200.0 mg/kg/injection, schedule: Q01DX009 (ip), vehicle: other", "value": "144 % of control"}]}
{"smiles": "O=C1C(=C(C(F)(F)F)C(F)(F)F)CCc2ccc([N+](=O)[O-])cc21", "values": [{"measurement": "T/C", "setting": "dose: 200.0 mg/kg/injection, schedule: Q04DX003 (ip), vehicle: saline with Tween-80", "value": "130 % of control"}]}
{"smiles": "COc1cc2cc3c4cc5c(cc4cc[n+]3c(C)c2cc1OC)OCO5", "note": "(tested in a mixture with another compound)", "values": [{"measurement": "T/C", "setting": "dose: 2.2 mg/kg/injection, schedule: Q04DX003 (ip), vehicle: saline", "value": "126 % of control"}, {"measurement": "T/C", "setting": "dose: 3.3 mg/kg/injection, schedule: Q04DX003 (ip), vehicle: saline", "value": "129 % of control"}, {"measurement": "T/C", "setting": "dose: 5.0 mg/kg/injection, schedule: Q04DX003 (ip), vehicle: saline", "value": "147 % of control"}, {"measurement": "T/C", "setting": "dose: 11.0 mg/kg/injection, schedule: Q04DX003 (ip), vehicle: saline", "value": "136 % of control"}, {"measurement": "T/C", "setting": "dose: 37.5 mg/kg/injection, schedule: Q04DX003 (ip), vehicle: saline", "value": "145 % of control"}, {"measurement": "T/C", "setting": "dose: 150.0 mg/kg/injection, schedule: Q04DX003 (ip), vehicle: saline", "value": "127 % of control"}]}
